These are yes or no findings as the source states them, for the method shown. Some binding calls cover weakened binding; strength is not graded here.
Key:
重组肌红蛋白(自产) [1] = biological target: T1, 重组肌红蛋白(自产) (UniProt P02144); assay: indirect ELISA on coated recombinant myoglobin
T1 sequence (looked up): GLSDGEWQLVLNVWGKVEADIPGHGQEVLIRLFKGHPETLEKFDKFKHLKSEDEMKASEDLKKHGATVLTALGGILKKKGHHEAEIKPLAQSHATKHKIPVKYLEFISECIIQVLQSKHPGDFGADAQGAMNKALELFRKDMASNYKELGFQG

重组肌红蛋白(自产) [2] = biological target: T1, 重组肌红蛋白(自产); assay: BLI, antibody captured on AMC sensors, MYO protein in serial dilution
重组肌红蛋白(自产) [3] = biological target: T1, 重组肌红蛋白(自产); assay: indirect ELISA, recombinant myoglobin coated at 1 ug/ml, CHO supernatant

Measured: binding

B1: 实施例1的肌红蛋白单克隆抗体(WT) (antibody, mouse IgG1, kappa, V domains shown)
VH: QIQLVQSGPELKKPGETVKISCKASGYTYTEFSVHWVKQAPGKGLKWMGWINSETSEPTYGDDFKGRFAFSLETSASAAYLQINNLKNEDSATYFCARRAYYLFGPFTYWGQGTLVTVSA
VL: DIVLTQSPASLAVSLGQRATISCRASKSVDFNGDSYMNWHQQKPGQPPKLLIYAASQRESGIPARFSGSGSGTDFTLNIHPVEEEDAATYYCQHSNEEPYTFGGGTKLEIKR
binds: all assays above

— patent CN113929777A
